Measured values from patent publication US20240209064A1.
These are yes or no findings as the source states them, for the method shown. Some entries that bind do so weakly or less than the wild type.

Chains of the proteins cited; added tags and fusions are not shown. Residues count along the entry.
UniProt P35968, residues 20-764: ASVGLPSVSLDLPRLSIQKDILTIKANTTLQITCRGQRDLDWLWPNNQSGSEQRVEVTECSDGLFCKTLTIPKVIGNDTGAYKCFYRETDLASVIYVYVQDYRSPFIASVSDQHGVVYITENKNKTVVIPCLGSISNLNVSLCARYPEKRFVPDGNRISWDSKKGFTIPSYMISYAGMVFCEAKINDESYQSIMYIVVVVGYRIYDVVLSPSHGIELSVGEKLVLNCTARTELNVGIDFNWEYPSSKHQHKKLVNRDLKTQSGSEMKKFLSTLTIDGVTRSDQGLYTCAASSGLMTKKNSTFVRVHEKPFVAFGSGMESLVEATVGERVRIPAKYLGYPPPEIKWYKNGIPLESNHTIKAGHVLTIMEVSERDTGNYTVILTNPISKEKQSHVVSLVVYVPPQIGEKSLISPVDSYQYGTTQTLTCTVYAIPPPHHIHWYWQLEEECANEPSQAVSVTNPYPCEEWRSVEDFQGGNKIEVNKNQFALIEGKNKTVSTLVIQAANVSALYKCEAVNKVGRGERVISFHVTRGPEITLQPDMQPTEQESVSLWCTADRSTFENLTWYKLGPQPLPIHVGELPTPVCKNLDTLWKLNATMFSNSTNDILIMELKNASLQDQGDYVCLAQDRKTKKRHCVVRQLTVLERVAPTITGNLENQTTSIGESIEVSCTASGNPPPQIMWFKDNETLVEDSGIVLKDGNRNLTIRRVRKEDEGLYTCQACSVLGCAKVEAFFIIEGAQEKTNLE

Target: vascular endothelial growth factor receptor 2 (UniProt P35968)
Test: ELISA

B1: protein C7-SL1 (designed binder, not shown: small tags and cut ends)
chain: VSDVPRDCEVVAATPTSLLISWRHPHFPTRYYRITYGETGGNSPVQEFTVPLQPPTATISGLKPGVDYTITVYAVTDGRNGRLLSIPICINYRT
modifications: disulfide bond between the two introduced cysteines
For B1, the binding was “binds”.
